Reference: PubChem BioAssay AID1508597 (Cure First, 2020)

Screen: 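Knock-downs altering ovarian cancer cell survival with or without PARP inhibitor rucaparib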 (primary screen)
System: human ovarian carcinoma lines grown from tumours: OCI-P5x (papillary serous) and OCI-C5x (clear cell)
Reagents: siRNA pool against human genes, 1.25 pmol siRNA per well
Timing: 72 h or 96 h, depending on the cell culture
Treatment: rucaparib 20 µM (about IC30) or vehicle, present until read-out
Rucaparib or vehicle: Vehicle
Cell line: OCI-C5x (clear cell)
Detection: 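ATP luminescence measured at 72 or 96 h according to the culture, then normalised and expressed as percent viability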
Scale: viability, normalised: higher = more viable cells remaining
Hit rule: 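a well counts as a hit if its normalised viability is under 80 percent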
Calls: active = viability under 80%; inactive = viability 80% or more
Shown is a random part of the about 2,100 reagents, under one of the conditions tested. 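Calls flag viability under 80% in either arm, not effects specific to rucaparib; the reference for percent is not stated.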 Entries without a mark were called inactive. A reagent listed more than once was tested more than once; the source does not tell the runs apart. The record does not give: the 100% reference.

The opening 8 entries as a preview:
| gene symbol | technical replicate | viability, normalised (%) |
| --- | --- | --- |
| NEK4 (NIMA related kinase 4) | 1 | 46 (active) |
| NEK4 (NIMA related kinase 4) | 2 | 48.4 (active) |
| NEK4 (NIMA related kinase 4) | 3 | 52.4 (active) |
| HDAC4 (histone deacetylase 4) | 1 | 49.5 (active) |
| HDAC4 (histone deacetylase 4) | 2 | 64.7 (active) |
| HDAC4 (histone deacetylase 4) | 3 | 82.1 |
| TAOK3 (TAO kinase 3) | 1 | 73.3 (active) |
| TAOK3 (TAO kinase 3) | 2 | 51.1 (active) |

Main list, from the start:
| gene symbol | technical replicate | viability, normalised (%) |
| --- | --- | --- |
| NEK4 (NIMA related kinase 4) | 1 | 46 (active) |
| NEK4 (NIMA related kinase 4) | 2 | 48.4 (active) |
| NEK4 (NIMA related kinase 4) | 3 | 52.4 (active) |
| HDAC4 (histone deacetylase 4) | 1 | 49.5 (active) |
| HDAC4 (histone deacetylase 4) | 2 | 64.7 (active) |
| HDAC4 (histone deacetylase 4) | 3 | 82.1 |
| TAOK3 (TAO kinase 3) | 1 | 73.3 (active) |
| TAOK3 (TAO kinase 3) | 2 | 51.1 (active) |
| TAOK3 (TAO kinase 3) | 3 | 64.3 (active) |
| STK32B (serine/threonine kinase 32B) | 1 | 37.9 (active) |
| STK32B (serine/threonine kinase 32B) | 2 | 39.8 (active) |
| STK32B (serine/threonine kinase 32B) | 3 | 42.1 (active) |
| TRPM7 | 1 | 48 (active) |
| TRPM7 | 2 | 57.4 (active) |
| TRPM7 | 3 | 48.9 (active) |
| ARID4B (AT-rich interaction domain 4B) | 1 | 41.8 (active) |
| ARID4B (AT-rich interaction domain 4B) | 2 | 38.9 (active) |
| ARID4B (AT-rich interaction domain 4B) | 3 | 39 (active) |
| STC1 (stanniocalcin 1) | 1 | 56.5 (active) |
| STC1 (stanniocalcin 1) | 2 | 71.4 (active) |
| STC1 (stanniocalcin 1) | 3 | 69.7 (active) |
| MED24 (mediator complex subunit 24) | 1 | 42.6 (active) |
| MED24 (mediator complex subunit 24) | 2 | 57.2 (active) |
| MED24 (mediator complex subunit 24) | 3 | 51.5 (active) |
| REV1 (REV1 DNA directed polymerase) | 1 | 45.3 (active) |
| REV1 (REV1 DNA directed polymerase) | 1 | 45.4 (active) |
| REV1 (REV1 DNA directed polymerase) | 2 | 64.3 (active) |
| REV1 (REV1 DNA directed polymerase) | 2 | 50.4 (active) |
| REV1 (REV1 DNA directed polymerase) | 3 | 51.6 (active) |
| REV1 (REV1 DNA directed polymerase) | 3 | 51 (active) |
| SMPDL3B (sphingomyelin phosphodiesterase acid like 3B) | 1 | 56.7 (active) |
| SMPDL3B (sphingomyelin phosphodiesterase acid like 3B) | 2 | 50.4 (active) |
| SMPDL3B (sphingomyelin phosphodiesterase acid like 3B) | 3 | 57.1 (active) |
| POLK (DNA polymerase kappa) | 1 | 41.1 (active) |
| POLK (DNA polymerase kappa) | 1 | 62.3 (active) |
| POLK (DNA polymerase kappa) | 2 | 55.7 (active) |
| POLK (DNA polymerase kappa) | 2 | 50.9 (active) |
| POLK (DNA polymerase kappa) | 3 | 43.7 (active) |
| POLK (DNA polymerase kappa) | 3 | 45.5 (active) |
| PRKCH (protein kinase C eta) | 1 | 79.8 (active) |
| PRKCH (protein kinase C eta) | 2 | 47.1 (active) |
| PRKCH (protein kinase C eta) | 3 | 54.9 (active) |
| TJP3 (tight junction protein 3) | 1 | 44.5 (active) |
| TJP3 (tight junction protein 3) | 2 | 72.7 (active) |
| TJP3 (tight junction protein 3) | 3 | 38.4 (active) |
| KDM6B (lysine demethylase 6B) | 1 | 46.6 (active) |
| KDM6B (lysine demethylase 6B) | 2 | 56.1 (active) |
| KDM6B (lysine demethylase 6B) | 3 | 54 (active) |
| TDP1 (tyrosyl-DNA phosphodiesterase 1) | 1 | 46.3 (active) |
| TDP1 (tyrosyl-DNA phosphodiesterase 1) | 1 | 73.7 (active) |
| TDP1 (tyrosyl-DNA phosphodiesterase 1) | 2 | 53.6 (active) |
| TDP1 (tyrosyl-DNA phosphodiesterase 1) | 2 | 102 |
| TDP1 (tyrosyl-DNA phosphodiesterase 1) | 3 | 40.9 (active) |
| TDP1 (tyrosyl-DNA phosphodiesterase 1) | 3 | 72.1 (active) |
| BLM (BLM RecQ like helicase) | 1 | 64 (active) |
| BLM (BLM RecQ like helicase) | 1 | 37.5 (active) |
| BLM (BLM RecQ like helicase) | 2 | 60.4 (active) |
| BLM (BLM RecQ like helicase) | 2 | 41 (active) |
| BLM (BLM RecQ like helicase) | 3 | 23.6 (active) |
| BLM (BLM RecQ like helicase) | 3 | 86.4 |
| SETD1A (SET domain containing 1A, histone lysine methyltransferase) | 1 | 42.7 (active) |
| SETD1A (SET domain containing 1A, histone lysine methyltransferase) | 2 | 37.6 (active) |
| SETD1A (SET domain containing 1A, histone lysine methyltransferase) | 3 | 49.9 (active) |
| TAF10 (TATA-box binding protein associated factor 10) | 1 | 44.6 (active) |
| TAF10 (TATA-box binding protein associated factor 10) | 2 | 50 (active) |
| TAF10 (TATA-box binding protein associated factor 10) | 3 | 41.2 (active) |
| CKMT2 (creatine kinase, mitochondrial 2) | 1 | 65.5 (active) |
| CKMT2 (creatine kinase, mitochondrial 2) | 2 | 79.3 (active) |
| CKMT2 (creatine kinase, mitochondrial 2) | 3 | 56 (active) |
| MYBL1 (MYB proto-oncogene like 1) | 1 | 60.9 (active) |
| MYBL1 (MYB proto-oncogene like 1) | 2 | 59.5 (active) |
| MYBL1 (MYB proto-oncogene like 1) | 3 | 58.6 (active) |
| RMI1 (RecQ mediated genome instability 1) | 1 | 51 (active) |
| RMI1 (RecQ mediated genome instability 1) | 2 | 55.1 (active) |
| RMI1 (RecQ mediated genome instability 1) | 3 | 61.3 (active) |
